Assay results taken from article PMC9353266.
These are yes or no findings as the source states them, for the method shown. Binding seen in cells or lysates may run through a third protein. Some entries that bind do so weakly or less than the wild type. Where a sequence is shown, tags or fusion partners need not be part of it.

The chains behind the UniProt entries cited, without tags or fusion partners.
UniProt P09528: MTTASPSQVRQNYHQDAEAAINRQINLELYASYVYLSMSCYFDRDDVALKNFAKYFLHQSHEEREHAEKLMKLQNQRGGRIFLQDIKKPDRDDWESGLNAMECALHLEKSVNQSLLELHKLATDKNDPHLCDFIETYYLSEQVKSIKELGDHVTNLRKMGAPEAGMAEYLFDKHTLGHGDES

Molecular target: FLAG-tagged FTH1 (ferritin heavy chain) (mouse (cDNA from HEI-OC1 cells)) (UniProt P09528)
Test: co-IP; WT and NPC1-/- HEI-OC1 cells co-transfected with FLAG-Fth1 and HA-NCOA4 for 48 h; IP lysis buffer; ANTI-FLAG M2 Affinity Gel, 4°C overnight; five washes; immunoblot with anti-FLAG and anti-HA; empty FLAG vector as control

B1: HA-tagged NCOA4 (nuclear receptor coactivator 4) (protein, UniProt Q5U4H9 1-625)
chain: MNTSLEQSGCYSNRETLLRCSDARRELELAIGGVLRAEQQIKDNLREVKAQIHSCISRHLECLRSREVWLNEQVDLIYQLKEETLQQQAQQLYWLMGQFNCLIHQLEYTQNKDLANQVSVCLERLGSLALKPEDSTVLLFEADTSALRQTITTFGSLKTIQIPEHLMAHASSSSIGPFLEKRGYIQVPEQKSASSGTAVSLSEWLLVSKPAIGLQAPYVPSTNPQDWLIPKQTSENSQTSARACSFFSDAWGNLKGLENWLLNSHQQEIAGKPSSSKCNSHCSTSSFSPEAEKAEDVELLDQDELDLSDWLVTPQEPCELEKPVDGSWETSEKFKLLFQVFREPYNVSDWLVKPDSCTNCQGNQPRGVEIENLGNLKCLNDHLEAKKSVSVPGATISDGWLAQNHQDTWKVEEVCKANEPCTSFAECVCDDNCEKEAMYKWLLKKGGKDKNGMPMEPKSEPEKHRESLTLWLCPSRNELTEQAKAPKAMAPARIADSFHVIKNSSLSEWLMGPTCKGGPKDVPNTEERAGKEMLQSSMATSWCPFNTADWVLPGKKVGSLSQFPSGEDKWLLRKKAQEAFLNSPLQEERNFRPDCYGLPAVCDLFACMQLKVDKEKWLYRTPLQM
Question: B1 was tested. Which binding did it give?
Answer: The binding was “binds”.
